# Results as given in paper PMC7819943, “Rice protein-binding microarrays: a tool to detect cis-acting elements near promoter regions in rice”.
# Amino acid sequences for entries named in this document (tags omitted).
# UniProt Q0JBA9, entry or part of it: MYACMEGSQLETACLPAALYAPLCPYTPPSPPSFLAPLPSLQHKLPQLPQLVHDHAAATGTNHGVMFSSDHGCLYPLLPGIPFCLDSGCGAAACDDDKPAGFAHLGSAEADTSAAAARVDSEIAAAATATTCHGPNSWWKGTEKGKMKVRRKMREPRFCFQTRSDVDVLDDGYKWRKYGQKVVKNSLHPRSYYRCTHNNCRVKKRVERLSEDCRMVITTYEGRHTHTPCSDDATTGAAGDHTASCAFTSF
# This is one part of the list.
# Target: OsWRKY34 (Oryza sativa, UniProt Q0JBA9 1-250)
# Test: protein-binding microarray (RPBM); PBS, 2% BSA, 51.3 ng/ul salmon testes DNA, 50 uM zinc acetate, 200 nM TF, 25 C, 1 h; high values mean tight binding
# Conditions: protein: recombinant; tags: N-terminal polyhistidine and DsRed monomer fusion (pET32a); label: CyDye5-dUTP incorporated in the synthesized complementary strand; 3' TTTTT single-stranded linker to array surface; dsDNA, one strand shown
# In short: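 Binding signal here means per-feature fluorescence intensity in arbitrary units. The values were read on an Axon 4000B scanner after a custom Agilent array, double-stranded by primer extension with Cy5-dUTP, was incubated with 200 nM protein at 25 °C for 1 h in PBS with 2% BSA, salmon testes DNA and 50 µM zinc acetate, then washed. The proteins were transcription factors with an N-terminal polyhistidine tag and DsRed, expressed in E. coli BL21-CodonPlus and purified on Ni–NTA.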
row,Sequence,binding signal
1,TCCTAGCTAGCTAACAAGTGTTTATCTCACCATGCATAATCGGAGTCACCTAGTGCAG,8220 fluorescence intensity (a.u.)
2,GCGATCTGATCTATACAATGGTTGTTAATAGTGGGTTTTTCGGAGTCACCTAGTGCAG,9330 fluorescence intensity (a.u.)
3,GTATACTATTTTATTCTCCATTGTGTTTTTTTTTCTCTTTCGGAGTCACCTAGTGCAG,10700 fluorescence intensity (a.u.)
4,CTCGTCCTACTTAGTACTCCTGCCGTACGTATTTATTGTACGGAGTCACCTAGTGCAG,9420 fluorescence intensity (a.u.)
5,AAGCCCACATTGGCCCATTTTGATTCATCTCGGAGTTTTTCGGAGTCACCTAGTGCAG,10100 fluorescence intensity (a.u.)
6,GTGTTTCTATTTTACACACGCGGCACATTCCTATATTTTCCGGAGTCACCTAGTGCAG,8900 fluorescence intensity (a.u.)
7,TTTGGATTTTGTTTCATTTTTTTTTACATGCATTGGATTACGGAGTCACCTAGTGCAG,9400 fluorescence intensity (a.u.)
8,ACGAACGGTCAAACATGTGATAAAAAGTCAACGACGTCAACGGAGTCACCTAGTGCAG,8600 fluorescence intensity (a.u.)
9,CACGCCGTACTTGCTCCACGATAAGCTCGTGCTCTGCTCTCGGAGTCACCTAGTGCAG,8170 fluorescence intensity (a.u.)
10,CCTCTACTCGATTACGATGTTCCTGGAGTAAATTTCTCCACGGAGTCACCTAGTGCAG,8210 fluorescence intensity (a.u.)
11,AGGGATTATGTGTGTGTAAGATATTTGTGACTAGTTTATTCGGAGTCACCTAGTGCAG,11500 fluorescence intensity (a.u.)
12,TCTTCTTTTGTACCGTTCATTTTTTTCTTTCTTTTTAGACCGGAGTCACCTAGTGCAG,11800 fluorescence intensity (a.u.)
13,TAATTCATGTCGGTCCTTCTTGTTGCATGGAAATATCCACCGGAGTCACCTAGTGCAG,8360 fluorescence intensity (a.u.)
14,ACTATTCCACCTATAAGGCCGCGCCGCCGCCGCCGACGAGCGGAGTCACCTAGTGCAG,8300 fluorescence intensity (a.u.)
15,GAACATATGCAAACAACTGTTAGAAAGTTATGTATGACCACGGAGTCACCTAGTGCAG,8080 fluorescence intensity (a.u.)
16,AAGTTTATTTTGCTATTTTCTTCTCCGGCATGATCGCTCCCGGAGTCACCTAGTGCAG,10900 fluorescence intensity (a.u.)
17,GTCAATTCCATTTCATCCCCAAACTTCCTTCTGCTCTTGCCGGAGTCACCTAGTGCAG,8900 fluorescence intensity (a.u.)
18,CAAATATTTTCTTTAGCTGTTCTATTATCAAGTATGTTCACGGAGTCACCTAGTGCAG,9000 fluorescence intensity (a.u.)
19,TCAACTTCACTCCACCTTTTTTCGCACGCACGCTTTCCAACGGAGTCACCTAGTGCAG,8900 fluorescence intensity (a.u.)
20,GGCACTCAGCATTCTCGCATTTTATCACCACCGAAAACAACGGAGTCACCTAGTGCAG,8150 fluorescence intensity (a.u.)
21,CAATTCAGGTTTGTGGTTGCATATGGATCCCAATGGACGCCGGAGTCACCTAGTGCAG,8110 fluorescence intensity (a.u.)

# Two records drawn at random from those above:
row,Sequence,binding signal
19,TCAACTTCACTCCACCTTTTTTCGCACGCACGCTTTCCAACGGAGTCACCTAGTGCAG,8900 fluorescence intensity (a.u.)
21,CAATTCAGGTTTGTGGTTGCATATGGATCCCAATGGACGCCGGAGTCACCTAGTGCAG,8110 fluorescence intensity (a.u.)

# (next part)

row,Sequence,binding signal
1,AACCACACAAACACCCGCTGCGCCGCTCGCTTCCTCCTCCCGGAGTCACCTAGTGCAG,9880 fluorescence intensity (a.u.)
2,CACGCCGCTTGGCAACACACAACGATTCCGGACTAGGTACCGGAGTCACCTAGTGCAG,8050 fluorescence intensity (a.u.)
3,CATTGCCATCTCGCCAGATTCACCTCCTTTCCTTGCCGCCCGGAGTCACCTAGTGCAG,9340 fluorescence intensity (a.u.)
4,TAGCCACACCCACACGCACACCCGATCGATCCTGGCATCCCGGAGTCACCTAGTGCAG,9050 fluorescence intensity (a.u.)
5,AGTAGTAGTTTCGTTTGTACGTTGACCCAAGCAGCAGATGCGGAGTCACCTAGTGCAG,9340 fluorescence intensity (a.u.)
6,CGAATCACGCGCTCTCCAACTCACACGCGTCCGCATCAACCGGAGTCACCTAGTGCAG,11000 fluorescence intensity (a.u.)
7,CAATTCGTCCGCGAGCTATACAAATTTGGATTCGTTTTGTCGGAGTCACCTAGTGCAG,10400 fluorescence intensity (a.u.)
8,CCCCACACTCCTTCGGCGCGCGCGTCCGTCCTCGATCGCGCGGAGTCACCTAGTGCAG,9720 fluorescence intensity (a.u.)
9,TTGCTTAACATATGCAAGTCGTTTCGGGGAGAGGGGCAGACGGAGTCACCTAGTGCAG,8020 fluorescence intensity (a.u.)
10,TAATGGGTTTTTTTTAGTGTTTCATTTTTTCTCTTCGGTTCGGAGTCACCTAGTGCAG,10800 fluorescence intensity (a.u.)
11,CAGATTCCTGTGTTTTTCCTATTCCTCCATTTTTTCAACCCGGAGTCACCTAGTGCAG,8120 fluorescence intensity (a.u.)
12,GGTTTTTTTTTTTCCGGATCAAATTGCCACGTCAACACGACGGAGTCACCTAGTGCAG,9510 fluorescence intensity (a.u.)
13,CGCCTCCGCCTCCGTCGACTCCGCGCCTCCGCCGCCACCCCGGAGTCACCTAGTGCAG,15100 fluorescence intensity (a.u.)
14,CGTCACCGCCGTCGATCTGCGCTCTCAGCCCGGCCAGCCACGGAGTCACCTAGTGCAG,8420 fluorescence intensity (a.u.)
15,TGTAAGTTAGCTTATCCTTGCTCCGGCCTCTACCGCATCTCGGAGTCACCTAGTGCAG,12100 fluorescence intensity (a.u.)
16,GGCTCGTTCGTCGTCTCCTCCCACCGCCGCTCGCGGGAGACGGAGTCACCTAGTGCAG,9420 fluorescence intensity (a.u.)
17,CATCGTGCTCTTCTCATTGCCTCTGCTTCTCGTGTTCTTGCGGAGTCACCTAGTGCAG,9360 fluorescence intensity (a.u.)
18,ATACCATCTTAGTCATTGGGTTGGGAATGGCCTAAGATCACGGAGTCACCTAGTGCAG,8050 fluorescence intensity (a.u.)
19,CATTTCTATTTCTGGCCCTTTTTCTGCTGTTTATGTCCATCGGAGTCACCTAGTGCAG,9020 fluorescence intensity (a.u.)
20,CCGCTCTCCTACTGCTCGGCCAACCAGTCATGCACACATACGGAGTCACCTAGTGCAG,8790 fluorescence intensity (a.u.)
21,GGCGGGATATATGGTGGGGCATCTCGCGGGCGATGGCGACCGGAGTCACCTAGTGCAG,8430 fluorescence intensity (a.u.)
